This is one part of the list. These are further read-outs of the screen, such as a control signal, another cell line or another target. No call is given for them. Most of these compounds were active or inconclusive in the main read-out, so they are no random draw. Words in brackets tell the shape of the fitted curve; partial curves, single points and poor fits give uncertain potencies.
Test: qHTS Assay for Lipid Storage Modulators in Drosophila S3 Cells;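 on cell number change: cells counted by Cell Tracker Red CMTPX staining in the red channel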
Conditions: BODIPY lipid droplet fluorescence, 18-24 h; for cell number change: measured here: cell count max response, cells fed with added oleic acid
Summary of the method: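 Laser-scanning cytometry quantifies lipid droplet accumulation (500–530 nm total intensity; droplet/cell object ratio) in oleic acid-fed (400 uM added) Drosophila S3 cells treated with a concentration series. 20 uM Triacsin C defined 100% inhibition.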

[1] = measured here: cell number channel AC50, cells fed with added oleic acid
[2] = measured here: lipid fluorescence (Fed channel) AC50, cells fed with added oleic acid

SMILES | AC50 [1] | AC50 [2] | cell number change [%]
Cc1nc2ccccc2n1CC(O)COc1ccccc1Cl (centres undefined) | 6.51 µM [rising, single point] | 6.51 µM [rising, single point] | –
CC(=O)c1ccc(NC(=O)Cn2cnc(S(=O)(=O)N3CCCCC3)c2)cc1 | – | – | -14.6
Cc1ccc(C2=CC(=O)C[C@H](c3ccc(Cl)cc3)C2)cc1 | – | 0.517 µM [rising, partial curve, poor fit] | -29.6
COc1ccc(-c2nn(C)c(=O)c3ccccc23)cc1NC(=O)Cn1nc(C)c2ccccc2c1=O | 6.51 µM [rising, single point] | 0.58 µM [falling, single point] | -10.4
O=C(NCCc1csc(-c2ccccc2)n1)c1ccco1 | – | 3.66 µM [rising, single point] | -18.2
COc1ccccc1/C=N/NC(=O)c1c(-c2ccccc2)noc1C | – | – | -11.9
CCOCc1nc(C)c(Cl)c(NS(=O)(=O)c2ccc(N)cc2)n1 | – | 7.31 µM [falling, single point] | 8.16
Cc1cc(OCC(=O)NC2CC(C)(C)NC(C)(C)C2)c(C)cc1Br | – | 23.1 µM [rising, single point] | -0.293
CCCOc1ccc(S(=O)(=O)Nc2ccccn2)c2ccccc12 | – | 29.1 µM [rising, single point] | 15
O=S(=O)(Nc1ccccc1O)c1cccc2cccnc12 | – | 13 µM [falling, partial curve] | -7.47
COC(=O)c1nc2nc(C)cc(C(F)(F)F)n2n1 | – | – | 14.8
CCOC(=O)C1(C)NC(c2ccco2)C2C(=O)N(c3ccccc3)C(=O)C21 (centres undefined) | – | 0.164 µM [falling, full curve, poor fit] | –
O=C(Nc1ccc(-c2cn3c(n2)SCC3)cc1)c1ccc2c(c1)OCO2 | 29.1 µM [rising, single point] | 20.6 µM [rising, single point] | 31.2
CCn1c(CNc2ccc(F)cc2)nnc1SCC(=O)OC1CCCCC1 | – | 1.03 µM [falling, full curve, poor fit] | 4.42
CCOc1ccc(/C=C/C(=O)N(C)CC(=O)Nc2cccc(F)c2)cc1OCC | 8.2 µM [rising, partial curve, poor fit] | – | 50.5
O=C(CSc1nnc(NC(=O)c2ccc(F)cc2)s1)NC1CC1 | – | 29.1 µM [rising, single point] | 7.26
CCOc1ccccc1N1C(=O)CC(N(O)c2ccccc2)C1=O (centres undefined) | – | 18.4 µM [rising, single point] | 8.29
CCCNC(=O)c1ccc2c(=O)n(Cc3ccco3)c(=S)[nH]c2c1 | 0.58 µM [rising, partial curve] | 1.03 µM [rising, partial curve] | –
Cc1c(N2C(=O)CSC2=S)c(=O)n(-c2ccccc2)n1C | 6.51 µM [falling, single point] | 6.51 µM [falling, single point] | 6.99

2 of these compounds, reformatted:

| SMILES | AC50 [1] | AC50 [2] | cell number change [%] |
| --- | --- | --- | --- |
| Cc1nc2ccccc2n1CC(O)COc1ccccc1Cl (centres undefined) | 6.51 µM [rising, single point] | 6.51 µM [rising, single point] | – |
| Cc1ccc(C2=CC(=O)C[C@H](c3ccc(Cl)cc3)C2)cc1 | – | 0.517 µM [rising, partial curve, poor fit] | -29.6 |

Continuation.

SMILES | AC50 [1] | AC50 [2] | cell number change [%]
Cc1ccc2c(c1)CCCN2C(=O)c1ccco1 | – | 20.6 µM [rising, partial curve] | 25.1
COc1ccc(NS(=O)(=O)c2cccc(NC(=O)CCC(=O)c3ccc(Cl)cc3)c2)cc1 | 20.6 µM [falling, single point] | 29.1 µM [falling, single point] | -31.6
CCCOC(=O)c1cccc(NC(=O)COc2ccc([N+](=O)[O-])cc2)c1 | – | – | -10.2
O=C(NCc1cccnc1)c1cc(C(=O)C2CC2)c[nH]1 | – | 0.82 µM [falling, full curve] | -22.2
COC(=O)c1sccc1NC(=O)/C=C\c1ccc(Cl)cc1Cl | 0.461 µM [rising, full curve] | – | –
COc1ccc(C(=O)N(C)CCCC2CCCC2)cc1OC1CCN(C(C)C)CC1 | 1.3 µM [falling, full curve, poor fit] | – | 1.08
CC(C)CCNC(=O)CCCn1c(=O)[nH]c2ccc(Br)cc2c1=O | – | 6.51 µM [falling, single point] | -7.67
COc1ccc(OCC(=O)Nc2c(C(=O)N(CCN(C)C)Cc3ccco3)oc3ccccc23)cc1 | 2.91 µM [rising, single point] | 9.2 µM [rising, partial curve] | 13.7
O=C(O)c1ccc(N2CC3CC(C2)c2cccc(=O)n2C3)c(NS(=O)(=O)c2cccc(C(F)(F)F)c2)c1 (centres undefined) | – | – | -8.38
COCCNC(=O)C(Cc1c[nH]c2ccccc12)NC(=O)OCc1ccccc1 (centres undefined) | – | – | -2.81
CC1CC(C#N)N(N(C)C)C1=C(C#N)C#N (centres undefined) | 0.00461 µM [falling, full curve] | – | -24.5
COc1ccc(Nc2cc(C)nc(N3CCN(C(=O)c4ccc5c(c4)OCO5)CC3)n2)cc1 | 2.06 µM [rising, partial curve] | – | -25.3
COc1ccc(OC(=O)Nc2ccccc2)cc1 | – | 29.1 µM [falling, single point] | -4.75
Cc1csc(CN(C)C(=O)CC2C(=O)NCCN2Cc2ccc(-c3ccccc3)cc2)n1 (centres undefined) | – | 1.64 µM [rising, partial curve, poor fit] | 14.8
O=C(CCC1CCCN(C(=O)c2ccsc2)C1)N1CCN(c2ccccn2)CC1 (centres undefined) | 0.651 µM [rising, full curve, poor fit] | 0.731 µM [rising, full curve, poor fit] | 30.8
O=C(NC(=S)Nc1ccccc1[N+](=O)[O-])c1ccccc1Cl | – | 2.91 µM [falling, single point] | 13.9
COc1ccc(N(C)C(=O)CCS(=O)(=O)c2cccc3nonc23)cc1 | 0.13 µM [falling, full curve, poor fit] | 2.59 µM [falling, single point] | -27.1
CCOC(=O)C1=C2SCCN2C(=O)C(C#N)C1(C)C (centres undefined) | – | 4.11 µM [rising, single point] | -17
O=S(=O)(Nc1cccc(-c2ccc3nncn3n2)c1)c1cc(F)ccc1F | 0.0058 µM [rising, full curve, poor fit] | – | –

From PubChem BioAssay AID2685 (National Center for Advancing Translational Sciences (NCATS), 2010)
